The other results are listed elsewhere or left out.
Each target was assayed with CC[C@@H]1C(=O)N(C)c2cnc(Nc3ccc(C(=O)N[C@H]4CC[C@H](N5CCN(CC6CC6)CC5)CC4)cc3OC)nc2N1C(C)C [volasertib] (assay: log2 fold change, soluble protein after heating vs DMSO (PISA); higher = thermal stabilisation; K562 lysate, 10 uM; active = over 0.2 and 3.5 SD of the protein, either way, in both replicates (recomputed)).
How it was run: (§1)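 K562 pellets were dounce-homogenised in PBS pH 7.4 with 1 mM MgCl2, and the crude extract at 1 mg/mL protein was treated with 10 μM compound for 30 min. Aliquots were heated for 3 min across 48°C-58°C, pooled, and brought to 0.5% NP-40 at 4°C; soluble protein was the supernatant after 21,000xg for 90 min. Soluble protein was quantified by TMTpro 16plex LC-MS/MS with channel sums equalised, and reported as log2 fold change in thermal stability against DMSO controls, with values from duplicates.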

Chains of the proteins cited; added tags and fusions are not shown. Lines headed by an entry give the natural chain unless they say otherwise; changes in a name come on top.
UniProt Q96AB3: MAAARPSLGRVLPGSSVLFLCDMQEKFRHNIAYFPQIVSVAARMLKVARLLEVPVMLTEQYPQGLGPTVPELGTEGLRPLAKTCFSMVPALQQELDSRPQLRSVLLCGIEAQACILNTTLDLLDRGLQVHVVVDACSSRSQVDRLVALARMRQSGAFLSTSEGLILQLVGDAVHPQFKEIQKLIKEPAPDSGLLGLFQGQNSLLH
UniProt Q8N5M9: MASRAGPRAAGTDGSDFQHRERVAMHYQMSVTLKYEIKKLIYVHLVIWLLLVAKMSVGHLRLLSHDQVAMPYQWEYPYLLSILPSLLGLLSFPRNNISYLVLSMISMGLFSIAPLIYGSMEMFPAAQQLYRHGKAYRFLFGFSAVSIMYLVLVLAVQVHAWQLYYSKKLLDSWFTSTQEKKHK
UniProt Q8NB78: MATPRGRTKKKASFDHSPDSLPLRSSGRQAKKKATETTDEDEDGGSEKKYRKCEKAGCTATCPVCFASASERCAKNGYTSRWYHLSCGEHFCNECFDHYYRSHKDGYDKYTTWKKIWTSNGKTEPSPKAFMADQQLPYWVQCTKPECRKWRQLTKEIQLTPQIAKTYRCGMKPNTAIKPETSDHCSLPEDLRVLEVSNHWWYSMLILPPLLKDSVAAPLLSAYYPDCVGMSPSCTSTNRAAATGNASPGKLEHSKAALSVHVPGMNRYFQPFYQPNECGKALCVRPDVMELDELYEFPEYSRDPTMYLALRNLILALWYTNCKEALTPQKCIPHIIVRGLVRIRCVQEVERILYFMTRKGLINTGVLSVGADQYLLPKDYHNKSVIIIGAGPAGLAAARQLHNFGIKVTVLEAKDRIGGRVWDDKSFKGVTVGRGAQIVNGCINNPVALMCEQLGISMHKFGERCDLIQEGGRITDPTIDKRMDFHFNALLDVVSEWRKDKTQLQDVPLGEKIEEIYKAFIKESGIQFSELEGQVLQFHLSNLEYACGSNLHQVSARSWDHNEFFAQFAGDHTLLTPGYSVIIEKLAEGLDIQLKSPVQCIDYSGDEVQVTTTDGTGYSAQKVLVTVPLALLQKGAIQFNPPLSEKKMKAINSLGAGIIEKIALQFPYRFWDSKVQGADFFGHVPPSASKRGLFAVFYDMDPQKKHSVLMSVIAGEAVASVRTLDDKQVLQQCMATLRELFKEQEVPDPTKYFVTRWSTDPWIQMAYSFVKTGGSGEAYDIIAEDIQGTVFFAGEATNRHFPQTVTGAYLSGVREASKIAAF
UniProt Q9NV88, whole entry, looked up: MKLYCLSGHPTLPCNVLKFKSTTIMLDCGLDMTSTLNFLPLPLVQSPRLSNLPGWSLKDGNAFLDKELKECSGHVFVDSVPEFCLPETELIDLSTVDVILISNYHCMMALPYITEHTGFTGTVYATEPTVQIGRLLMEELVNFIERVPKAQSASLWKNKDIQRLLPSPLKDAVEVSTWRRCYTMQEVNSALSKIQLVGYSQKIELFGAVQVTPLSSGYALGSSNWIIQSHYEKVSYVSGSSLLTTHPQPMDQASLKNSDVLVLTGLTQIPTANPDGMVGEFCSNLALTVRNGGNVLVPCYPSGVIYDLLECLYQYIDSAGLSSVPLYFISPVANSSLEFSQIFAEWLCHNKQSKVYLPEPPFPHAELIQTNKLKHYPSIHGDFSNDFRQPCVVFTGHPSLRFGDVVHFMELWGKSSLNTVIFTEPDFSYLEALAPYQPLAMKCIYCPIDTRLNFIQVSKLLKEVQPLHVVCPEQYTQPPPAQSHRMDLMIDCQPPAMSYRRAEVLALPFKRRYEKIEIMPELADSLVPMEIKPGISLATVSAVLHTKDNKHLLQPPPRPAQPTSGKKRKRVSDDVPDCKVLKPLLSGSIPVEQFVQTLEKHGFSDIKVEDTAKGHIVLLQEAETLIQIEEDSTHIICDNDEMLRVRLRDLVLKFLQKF
UniProt Q9H1K1: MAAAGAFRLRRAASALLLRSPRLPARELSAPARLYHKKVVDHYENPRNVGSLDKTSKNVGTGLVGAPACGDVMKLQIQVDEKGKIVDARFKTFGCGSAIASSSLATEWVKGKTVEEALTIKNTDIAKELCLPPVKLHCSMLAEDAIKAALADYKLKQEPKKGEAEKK
UniProt P06756, whole entry, looked up: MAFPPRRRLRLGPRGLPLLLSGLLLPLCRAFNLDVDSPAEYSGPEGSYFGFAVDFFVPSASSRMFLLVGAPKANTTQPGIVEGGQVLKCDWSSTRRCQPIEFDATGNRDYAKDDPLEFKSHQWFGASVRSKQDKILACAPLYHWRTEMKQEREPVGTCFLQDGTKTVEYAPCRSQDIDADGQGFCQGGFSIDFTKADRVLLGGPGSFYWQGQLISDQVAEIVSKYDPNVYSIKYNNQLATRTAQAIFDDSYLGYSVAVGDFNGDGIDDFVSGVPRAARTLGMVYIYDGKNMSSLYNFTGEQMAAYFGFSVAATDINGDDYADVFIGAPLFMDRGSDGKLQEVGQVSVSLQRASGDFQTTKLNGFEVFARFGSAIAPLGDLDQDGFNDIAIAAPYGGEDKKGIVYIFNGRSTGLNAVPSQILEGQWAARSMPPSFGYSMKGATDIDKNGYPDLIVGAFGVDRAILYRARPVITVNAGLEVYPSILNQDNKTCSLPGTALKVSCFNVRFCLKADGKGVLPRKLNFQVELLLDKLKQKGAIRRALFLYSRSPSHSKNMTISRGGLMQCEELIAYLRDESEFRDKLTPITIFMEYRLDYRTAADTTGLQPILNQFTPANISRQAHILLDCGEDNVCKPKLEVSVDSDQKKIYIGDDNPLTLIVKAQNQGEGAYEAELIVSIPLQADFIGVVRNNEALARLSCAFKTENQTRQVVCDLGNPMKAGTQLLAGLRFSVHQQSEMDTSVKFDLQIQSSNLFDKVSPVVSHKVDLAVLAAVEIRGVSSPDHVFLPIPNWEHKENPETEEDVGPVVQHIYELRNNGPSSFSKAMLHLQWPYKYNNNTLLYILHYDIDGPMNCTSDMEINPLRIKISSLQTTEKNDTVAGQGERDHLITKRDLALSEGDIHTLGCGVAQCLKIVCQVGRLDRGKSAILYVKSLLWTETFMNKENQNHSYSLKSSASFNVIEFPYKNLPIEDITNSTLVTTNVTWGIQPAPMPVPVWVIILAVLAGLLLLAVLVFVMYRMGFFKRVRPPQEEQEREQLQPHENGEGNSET
UniProt Q9H1B7, whole entry, looked up: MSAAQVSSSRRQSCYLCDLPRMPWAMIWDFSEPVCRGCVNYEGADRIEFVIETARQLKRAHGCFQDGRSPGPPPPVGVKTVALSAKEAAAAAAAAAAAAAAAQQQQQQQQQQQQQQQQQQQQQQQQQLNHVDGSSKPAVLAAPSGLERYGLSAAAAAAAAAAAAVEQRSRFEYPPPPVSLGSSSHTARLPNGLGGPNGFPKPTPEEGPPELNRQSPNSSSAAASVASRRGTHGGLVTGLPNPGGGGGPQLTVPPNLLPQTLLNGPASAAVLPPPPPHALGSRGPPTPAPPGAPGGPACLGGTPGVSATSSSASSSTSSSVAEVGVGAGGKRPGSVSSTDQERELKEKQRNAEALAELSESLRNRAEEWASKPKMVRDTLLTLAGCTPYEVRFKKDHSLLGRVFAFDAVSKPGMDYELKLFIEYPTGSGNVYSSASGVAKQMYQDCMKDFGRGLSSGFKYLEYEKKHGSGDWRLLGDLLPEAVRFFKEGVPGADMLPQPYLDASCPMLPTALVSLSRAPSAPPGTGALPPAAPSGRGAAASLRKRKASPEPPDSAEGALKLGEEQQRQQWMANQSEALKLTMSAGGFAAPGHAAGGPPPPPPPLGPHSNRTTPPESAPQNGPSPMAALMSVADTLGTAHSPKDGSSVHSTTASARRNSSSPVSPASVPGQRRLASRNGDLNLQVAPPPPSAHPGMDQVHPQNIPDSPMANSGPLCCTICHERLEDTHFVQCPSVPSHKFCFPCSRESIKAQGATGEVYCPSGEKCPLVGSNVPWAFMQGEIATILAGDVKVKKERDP
UniProt Q96CN7: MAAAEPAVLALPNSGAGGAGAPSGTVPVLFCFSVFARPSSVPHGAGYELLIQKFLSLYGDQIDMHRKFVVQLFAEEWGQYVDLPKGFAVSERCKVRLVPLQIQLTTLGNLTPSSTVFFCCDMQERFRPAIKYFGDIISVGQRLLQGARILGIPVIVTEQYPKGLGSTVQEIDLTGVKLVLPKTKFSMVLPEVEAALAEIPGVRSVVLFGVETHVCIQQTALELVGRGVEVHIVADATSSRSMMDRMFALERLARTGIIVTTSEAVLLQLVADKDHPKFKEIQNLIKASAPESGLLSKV
UniProt Q9H7Z6: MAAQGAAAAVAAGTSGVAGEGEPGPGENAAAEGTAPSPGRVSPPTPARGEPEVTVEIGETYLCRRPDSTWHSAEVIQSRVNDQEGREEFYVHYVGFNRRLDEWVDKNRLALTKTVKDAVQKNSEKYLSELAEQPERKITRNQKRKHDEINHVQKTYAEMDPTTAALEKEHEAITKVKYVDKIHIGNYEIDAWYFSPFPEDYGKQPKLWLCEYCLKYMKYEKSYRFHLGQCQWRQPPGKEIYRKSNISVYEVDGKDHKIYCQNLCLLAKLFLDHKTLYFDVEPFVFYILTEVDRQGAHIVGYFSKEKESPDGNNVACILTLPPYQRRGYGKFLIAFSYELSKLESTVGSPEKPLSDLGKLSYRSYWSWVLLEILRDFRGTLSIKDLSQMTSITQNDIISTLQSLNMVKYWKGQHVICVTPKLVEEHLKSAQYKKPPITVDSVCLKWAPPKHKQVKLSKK
UniProt Q9H910: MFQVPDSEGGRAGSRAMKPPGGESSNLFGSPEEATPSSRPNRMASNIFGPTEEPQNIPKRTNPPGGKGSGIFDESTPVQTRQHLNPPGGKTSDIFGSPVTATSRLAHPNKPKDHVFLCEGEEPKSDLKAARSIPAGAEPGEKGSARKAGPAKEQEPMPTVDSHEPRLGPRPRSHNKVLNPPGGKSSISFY
UniProt Q8TB96: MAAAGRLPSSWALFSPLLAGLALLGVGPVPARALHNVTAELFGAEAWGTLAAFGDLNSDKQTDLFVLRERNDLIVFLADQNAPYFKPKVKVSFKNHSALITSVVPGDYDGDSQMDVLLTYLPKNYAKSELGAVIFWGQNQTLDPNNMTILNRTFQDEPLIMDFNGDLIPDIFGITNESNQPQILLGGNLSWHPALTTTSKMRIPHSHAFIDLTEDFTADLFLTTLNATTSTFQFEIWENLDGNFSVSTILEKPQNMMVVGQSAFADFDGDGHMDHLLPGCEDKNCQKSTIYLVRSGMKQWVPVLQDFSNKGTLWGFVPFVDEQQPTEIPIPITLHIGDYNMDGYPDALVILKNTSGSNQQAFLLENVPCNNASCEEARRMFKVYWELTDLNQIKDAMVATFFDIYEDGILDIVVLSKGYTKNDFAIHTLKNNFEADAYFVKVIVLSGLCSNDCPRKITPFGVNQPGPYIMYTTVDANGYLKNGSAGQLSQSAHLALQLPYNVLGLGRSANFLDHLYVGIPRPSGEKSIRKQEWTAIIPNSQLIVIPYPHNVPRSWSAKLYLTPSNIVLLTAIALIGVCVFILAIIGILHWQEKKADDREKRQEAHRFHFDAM
UniProt Q9ULR0: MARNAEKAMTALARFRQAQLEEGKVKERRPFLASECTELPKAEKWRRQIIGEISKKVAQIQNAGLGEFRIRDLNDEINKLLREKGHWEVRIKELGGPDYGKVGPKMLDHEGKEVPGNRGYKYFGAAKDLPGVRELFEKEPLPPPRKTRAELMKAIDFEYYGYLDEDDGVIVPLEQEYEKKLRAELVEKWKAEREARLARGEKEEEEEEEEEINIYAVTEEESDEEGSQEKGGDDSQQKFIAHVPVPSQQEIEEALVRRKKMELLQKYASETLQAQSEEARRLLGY
UniProt P05556, whole entry, looked up: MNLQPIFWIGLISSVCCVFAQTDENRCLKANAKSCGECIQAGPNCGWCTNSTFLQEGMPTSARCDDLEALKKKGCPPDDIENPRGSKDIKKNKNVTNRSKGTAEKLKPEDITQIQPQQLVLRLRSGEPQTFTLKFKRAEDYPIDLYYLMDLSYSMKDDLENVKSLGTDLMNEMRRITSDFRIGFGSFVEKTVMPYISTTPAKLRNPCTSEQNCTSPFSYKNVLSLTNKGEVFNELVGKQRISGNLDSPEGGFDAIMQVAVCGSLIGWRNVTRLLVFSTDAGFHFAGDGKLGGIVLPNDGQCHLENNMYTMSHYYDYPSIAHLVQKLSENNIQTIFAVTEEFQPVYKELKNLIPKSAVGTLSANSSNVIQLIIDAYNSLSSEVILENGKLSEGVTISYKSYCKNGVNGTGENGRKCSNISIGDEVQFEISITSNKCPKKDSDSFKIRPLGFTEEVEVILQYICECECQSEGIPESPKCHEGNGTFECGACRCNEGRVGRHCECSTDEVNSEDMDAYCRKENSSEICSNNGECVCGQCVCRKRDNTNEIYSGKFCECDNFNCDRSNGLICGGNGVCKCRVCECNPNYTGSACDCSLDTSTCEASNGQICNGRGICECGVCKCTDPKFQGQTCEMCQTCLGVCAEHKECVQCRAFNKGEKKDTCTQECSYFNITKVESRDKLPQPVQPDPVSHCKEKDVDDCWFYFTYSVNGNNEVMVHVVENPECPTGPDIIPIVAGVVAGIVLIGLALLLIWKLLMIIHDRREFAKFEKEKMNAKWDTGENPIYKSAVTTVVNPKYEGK

| Target | log2 fold change |
| --- | --- |
| ISOC2 (UniProt Q96AB3) | inactive: 0.013 |
| INTS5 (UniProt Q6P9B9) | inactive: 0.223 |
| ITPKA (UniProt P23677) | inactive: -0.065 |
| IPO11 isoform 2 (UniProt Q9UI26) | inactive: -0.014 |
| JAGN1 (UniProt Q8N5M9) | inactive: 0.087 |
| KDM1B (UniProt Q8NB78) | inactive: -0.056 |
| KDELR2 (UniProt P33947) | inactive: 0.079 |
| INTS9 (UniProt Q9NV88) | inactive: 0.01 |
| KCTD10 (UniProt Q9H3F6) | inactive: 0.004 |
| ISYNA1 (UniProt Q9NPH2) | inactive: 0.035 |
| ISCU (UniProt Q9H1K1) | inactive: 0.023 |
| IQGAP1 (UniProt P46940) | inactive: -0.023 |
| INTS14 (UniProt Q96SY0) | inactive: -0.013 |
| KDM1A (UniProt O60341) | inactive: -0.046 |
| KBTBD2 (UniProt Q8IY47) | inactive: 0.013 |
| IQSEC1 (UniProt Q6DN90) | inactive: -0.057 |
| IRAK1 (UniProt P51617) | inactive: -0.134 |
| ITGAV (UniProt P06756) | inactive: 0 |
| KCTD9 (UniProt Q7L273) | inactive: -0.009 |
| IRF2BPL (UniProt Q9H1B7) | inactive: 0.001 |

| Target | log2 fold change |
| --- | --- |
| IRF2BP1 (UniProt Q8IU81) | inactive: -0.088 |
| ISOC1 (UniProt Q96CN7) | inactive: 0.035 |
| KAT7 (UniProt O95251) | inactive: 0.013 |
| JPT1 (UniProt Q9UK76) | inactive: 0.023 |
| KCTD5 (UniProt Q9NXV2) | inactive: -0.007 |
| INTS7 (UniProt Q9NVH2) | inactive: 0.013 |
| IRF3 (UniProt Q14653) | inactive: -0.018 |
| ITPK1 (UniProt Q13572) | inactive: -0.135 |
| KAT8 (UniProt Q9H7Z6) | inactive: -0.009 |
| IPO5 isoform 3 (UniProt O00410) | inactive: 0.012 |
| ISCA1 isoform 2 (UniProt Q9BUE6) | inactive: 0.03 |
| JPT2 isoform 3 (UniProt Q9H910) | inactive: 0.03 |
| KCTD20 (UniProt Q7Z5Y7) | inactive: 0.007 |
| ITFG1 (UniProt Q8TB96) | inactive: -0.047 |
| KANSL3 (UniProt Q9P2N6) | inactive: -0.002 |
| KCT2 (UniProt Q8NC54) | inactive: -0.001 |
| JUND (UniProt P17535) | inactive: 0.032 |
| ISY1 isoform 1 (UniProt Q9ULR0) | inactive: -0.025 |
| ITGB1 (UniProt P05556) | inactive: 0.021 |

Each target was assayed with CCn1c(C(=O)N(C2CC2)C2CC2)cc2c3c(ncn3C)c(Nc3cc(C)n(C)n3)nc21 in the same assay as above.
How it was run: as §1

| Target | log2 fold change |
| --- | --- |
| ISOC2 (UniProt Q96AB3) | inactive: -0.043 |
| INTS5 (UniProt Q6P9B9) | inactive: 0.023 |
| ITPKA (UniProt P23677) | inactive: -0.03 |
| IPO11 isoform 2 (UniProt Q9UI26) | inactive: -0.012 |
| JAGN1 (UniProt Q8N5M9) | inactive: -0.035 |
| KDM1B (UniProt Q8NB78) | inactive: -0.03 |
| KDELR2 (UniProt P33947) | inactive: -0.058 |
| INTS9 (UniProt Q9NV88) | inactive: 0.004 |
| KCTD10 (UniProt Q9H3F6) | inactive: -0.029 |
| ISYNA1 (UniProt Q9NPH2) | inactive: -0.012 |
| ISCU (UniProt Q9H1K1) | inactive: -0.059 |
| IQGAP1 (UniProt P46940) | inactive: 0.004 |
| INTS14 (UniProt Q96SY0) | inactive: -0.017 |
| KDM1A (UniProt O60341) | inactive: -0.011 |
| KBTBD2 (UniProt Q8IY47) | inactive: -0.181 |
| IQSEC1 (UniProt Q6DN90) | inactive: -0.017 |
| IRAK1 (UniProt P51617) | inactive: 0.041 |
| ITGAV (UniProt P06756) | inactive: -0.03 |
| KCTD9 (UniProt Q7L273) | inactive: -0.055 |
| IRF2BPL (UniProt Q9H1B7) | inactive: 0.022 |

| Target | log2 fold change |
| --- | --- |
| IRF2BP1 (UniProt Q8IU81) | inactive: 0.014 |
| ISOC1 (UniProt Q96CN7) | inactive: -0.044 |
| KAT7 (UniProt O95251) | inactive: -0.132 |
| JPT1 (UniProt Q9UK76) | inactive: -0.014 |
| KCTD5 (UniProt Q9NXV2) | inactive: 0.023 |
| INTS7 (UniProt Q9NVH2) | inactive: 0.028 |
| IRF3 (UniProt Q14653) | inactive: -0.002 |
| ITPK1 (UniProt Q13572) | inactive: 0.035 |
| KAT8 (UniProt Q9H7Z6) | inactive: 0.007 |
| IPO5 isoform 3 (UniProt O00410) | inactive: 0.027 |
| ISCA1 isoform 2 (UniProt Q9BUE6) | inactive: -0.051 |
| JPT2 isoform 3 (UniProt Q9H910) | inactive: -0.02 |
| KCTD20 (UniProt Q7Z5Y7) | inactive: -0.055 |
| ITFG1 (UniProt Q8TB96) | inactive: 0.006 |
| KANSL3 (UniProt Q9P2N6) | inactive: 0.03 |
| KCT2 (UniProt Q8NC54) | inactive: -0.038 |
| JUND (UniProt P17535) | inactive: 0.048 |
| ISY1 isoform 1 (UniProt Q9ULR0) | inactive: -0.012 |
| ITGB1 (UniProt P05556) | inactive: -0.008 |

Source: the supplement of paper PMC10849652
